Consider one substance from article PMC5443517.

Amino acid sequences for entries named in this document (tags omitted). A change or cut given only in a name is not applied to a line headed by its entry.
UniProt P20700: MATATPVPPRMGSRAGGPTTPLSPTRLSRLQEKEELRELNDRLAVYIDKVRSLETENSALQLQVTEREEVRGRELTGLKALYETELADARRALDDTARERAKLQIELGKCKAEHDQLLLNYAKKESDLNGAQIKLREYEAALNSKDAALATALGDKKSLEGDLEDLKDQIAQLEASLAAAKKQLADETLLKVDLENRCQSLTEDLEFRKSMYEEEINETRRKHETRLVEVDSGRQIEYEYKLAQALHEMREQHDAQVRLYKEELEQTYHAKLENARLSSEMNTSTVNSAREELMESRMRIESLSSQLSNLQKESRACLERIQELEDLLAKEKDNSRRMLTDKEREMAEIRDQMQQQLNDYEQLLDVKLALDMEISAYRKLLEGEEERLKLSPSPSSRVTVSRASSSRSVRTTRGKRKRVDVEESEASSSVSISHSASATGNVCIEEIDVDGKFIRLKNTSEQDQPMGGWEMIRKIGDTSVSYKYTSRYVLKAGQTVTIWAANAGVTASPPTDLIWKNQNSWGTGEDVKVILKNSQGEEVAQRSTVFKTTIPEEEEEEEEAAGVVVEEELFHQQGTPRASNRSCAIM
UniProt P14859: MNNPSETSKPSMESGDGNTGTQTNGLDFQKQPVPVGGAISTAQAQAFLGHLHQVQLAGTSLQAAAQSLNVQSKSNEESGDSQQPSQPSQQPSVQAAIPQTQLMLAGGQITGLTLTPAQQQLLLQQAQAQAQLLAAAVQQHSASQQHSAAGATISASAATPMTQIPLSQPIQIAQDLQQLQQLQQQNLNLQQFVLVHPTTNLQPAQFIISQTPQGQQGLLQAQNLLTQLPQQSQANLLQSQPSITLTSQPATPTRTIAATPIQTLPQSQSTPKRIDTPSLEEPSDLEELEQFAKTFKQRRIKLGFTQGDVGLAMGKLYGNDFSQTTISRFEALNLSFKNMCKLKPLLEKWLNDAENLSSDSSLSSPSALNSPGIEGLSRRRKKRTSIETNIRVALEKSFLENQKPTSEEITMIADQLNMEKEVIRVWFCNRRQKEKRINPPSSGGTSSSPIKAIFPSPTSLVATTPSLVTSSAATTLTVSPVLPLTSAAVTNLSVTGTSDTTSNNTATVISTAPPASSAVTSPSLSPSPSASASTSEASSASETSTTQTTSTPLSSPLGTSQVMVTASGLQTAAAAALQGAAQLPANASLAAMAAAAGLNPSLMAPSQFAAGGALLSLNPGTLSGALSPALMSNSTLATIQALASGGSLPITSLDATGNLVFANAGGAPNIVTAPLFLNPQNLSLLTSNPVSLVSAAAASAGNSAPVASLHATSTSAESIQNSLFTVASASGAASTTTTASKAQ

No constants are given. Whether binding was seen depends on the method and setting. Binding seen in cells or lysates may run through a third protein. Some entries that bind do so weakly or less than the wild type.

Assay [1] has as its target GFP-lamin B1 S391A/S393A (UniProt P20700). The experiment in a line: co-IP; anti-GFP antibody on Protein G Dynabeads, lysates of HeLa cells transfected with GFP-lamin B1 mutants 24 h before MMS treatment; control or MMS; blot for endogenous Oct-1.
For assay [2], the target named is GFP-lamin B1 S391E/S393E (UniProt P20700). Described as above.
For assay [3], the target named is GFP-lamin B1 S508A (UniProt P20700). The description is as above.
In assay [4] the target is GFP-lamin B1 S508E (UniProt P20700). The assay is described as above.
The target in assay [5] is GFP-lamin B1 T575A (UniProt P20700). Described as above.
The target in assay [6] is GFP-lamin B1 T575E (UniProt P20700). Described as above.
For assay [7], the target named is lamin B1 (human (endogenous in HeLa)) (UniProt P20700). The assay is described as follows: co-IP; anti-lamin B1 antibody on Protein G Dynabeads, overnight at 4°C, NP-40 lysates of HeLa cells; control or MMS (100 ug/ml, 2 h and 4 h), with or without pre-treatment with JNK inhibitor SP6000125 or ERK inhibitor UO126; blot for Oct-1; in some cases cells were cross-linked with DSS or BS3 and lysed in RIPA buffer.

With Oct-1 (from UniProt P14859 1-743), the binding entry in assay [1] is given as “binds”; in assay [2] it was “binds”; in assay [3], “binds”; in assay [4], “binds”; in assay [5], “binds”; in assay [6], “binds weakly”. Also, the binding result in assay [7] is “binds”.
